Source: US20180263964A1 (MINERVA BIOTECHNOLOGIES, published 2018)
No constants are given. Whether binding was seen depends on the method and setting. Binding seen in cells or lysates may run through a third protein. Some binding calls cover weakened binding; strength is not graded here.

The chains behind the UniProt entries cited, without tags or fusion partners. Residues count along the entry.
UniProt P15941, residues 1110-1255: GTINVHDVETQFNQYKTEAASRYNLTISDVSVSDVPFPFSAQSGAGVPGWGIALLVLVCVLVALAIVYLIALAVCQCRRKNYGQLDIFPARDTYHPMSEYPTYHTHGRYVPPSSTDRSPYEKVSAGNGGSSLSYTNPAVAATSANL

Key:
MUC1* (human) [1] = target: MUC1* (human) (UniProt P15941); test: co-immunoprecipitation with Ab5 from T47D cancer cell lysate, Western blot
MUC1* (human) [2] = target: MUC1* (human) (UniProt P15941); test: co-immunoprecipitation with Ab5 from stem cell and T47D lysates, Western blot
MUC1* (human) [3] = target: MUC1* (human) (UniProt P15941); test: co-immunoprecipitation with Ab5 from human iPS and HES cell lysates, Western blot for NME7

Measured: binding

B1: NME7AB (ligand)
chain: MEKTLALIKPDAISKAGEIIEIINKAGFTITKLKMMMLSRKEALDFHVDHQSRPFFNELIQFITTGPIIAMEILRDDAICEWKRLLGPANSGVARTDASESIRALFGTDGIRNAAHGPDSFASAAREMELFFPSSGGCGPANTAKFTNCTCCIVKPHAVSEGLLGKILMAIRDAGFEISAMQMFNMDRVNVEEFYEVYKGVVTEYHDMVTEMYSGPCVAMEIQQNNATKTFREFCGPADPEIARHLRPGTLRAIFGKTKIQNAVHCTDLPEDGLLEVQYFFKILDN
notes: In the co-immunoprecipitations and Western blots this is the endogenous 33 kDa species of cell lysates; also called human NME7-AB; 33 kDa NME7-reactive species
binds: all assays above

B2: NME7-X1 (ligand)
chain: MMMLSRKEALDFHVDHQSRPFFNELIQFITTGPIIAMEILRDDAICEWKRLLGPANSGVARTDASESIRALFGTDGIRNAAHGPDSFASAAREMELFFPSSGGCGPANTAKFTNCTCCIVKPHAVSEGLLGKILMAIRDAGFEISAMQMFNMDRVNVEEFYEVYKGVVTEYHDMVTEMYSGPCVAMEIQQNNATKTFREFCGPADPEIARHLRPGTLRAIFGKTKIQNAVHCTDLPEDGLLEVQYFFKILDN
notes: Alternative splice isoform of NME7; In the blots it is the endogenous 30 kDa species of cell lysates; also called human NME7-X1; 30 kDa NME7-reactive species
binds: all assays above
